Among the data in doi:10.1101/2023.08.11.552907 are binding values, retold here.

Protein sequences, listed by entry. Tags and fused reporters are not part of them. Lines headed by an entry give the natural chain unless they say otherwise; changes in a name come on top. Chains listed by the source or under a name are the forms on record and can include a tag or linker.
UniProt P83917: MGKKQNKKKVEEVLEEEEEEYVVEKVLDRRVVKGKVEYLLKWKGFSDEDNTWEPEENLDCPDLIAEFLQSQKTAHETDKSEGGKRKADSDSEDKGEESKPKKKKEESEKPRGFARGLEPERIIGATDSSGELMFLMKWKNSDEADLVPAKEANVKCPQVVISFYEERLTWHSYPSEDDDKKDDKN
HP1β 89/91A with C-terminal GFP (P83917, form named): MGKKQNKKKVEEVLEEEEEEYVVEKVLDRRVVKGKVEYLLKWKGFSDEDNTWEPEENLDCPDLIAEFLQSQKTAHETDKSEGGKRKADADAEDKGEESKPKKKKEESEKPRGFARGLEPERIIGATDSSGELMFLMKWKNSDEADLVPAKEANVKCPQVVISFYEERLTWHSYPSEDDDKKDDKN
UniProt Q61686: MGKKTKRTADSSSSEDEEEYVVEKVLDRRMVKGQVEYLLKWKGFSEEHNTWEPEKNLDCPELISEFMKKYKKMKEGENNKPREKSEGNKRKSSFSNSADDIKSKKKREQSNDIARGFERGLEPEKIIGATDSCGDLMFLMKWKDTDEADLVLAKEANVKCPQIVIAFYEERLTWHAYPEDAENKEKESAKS
UniProt Q69ZA1: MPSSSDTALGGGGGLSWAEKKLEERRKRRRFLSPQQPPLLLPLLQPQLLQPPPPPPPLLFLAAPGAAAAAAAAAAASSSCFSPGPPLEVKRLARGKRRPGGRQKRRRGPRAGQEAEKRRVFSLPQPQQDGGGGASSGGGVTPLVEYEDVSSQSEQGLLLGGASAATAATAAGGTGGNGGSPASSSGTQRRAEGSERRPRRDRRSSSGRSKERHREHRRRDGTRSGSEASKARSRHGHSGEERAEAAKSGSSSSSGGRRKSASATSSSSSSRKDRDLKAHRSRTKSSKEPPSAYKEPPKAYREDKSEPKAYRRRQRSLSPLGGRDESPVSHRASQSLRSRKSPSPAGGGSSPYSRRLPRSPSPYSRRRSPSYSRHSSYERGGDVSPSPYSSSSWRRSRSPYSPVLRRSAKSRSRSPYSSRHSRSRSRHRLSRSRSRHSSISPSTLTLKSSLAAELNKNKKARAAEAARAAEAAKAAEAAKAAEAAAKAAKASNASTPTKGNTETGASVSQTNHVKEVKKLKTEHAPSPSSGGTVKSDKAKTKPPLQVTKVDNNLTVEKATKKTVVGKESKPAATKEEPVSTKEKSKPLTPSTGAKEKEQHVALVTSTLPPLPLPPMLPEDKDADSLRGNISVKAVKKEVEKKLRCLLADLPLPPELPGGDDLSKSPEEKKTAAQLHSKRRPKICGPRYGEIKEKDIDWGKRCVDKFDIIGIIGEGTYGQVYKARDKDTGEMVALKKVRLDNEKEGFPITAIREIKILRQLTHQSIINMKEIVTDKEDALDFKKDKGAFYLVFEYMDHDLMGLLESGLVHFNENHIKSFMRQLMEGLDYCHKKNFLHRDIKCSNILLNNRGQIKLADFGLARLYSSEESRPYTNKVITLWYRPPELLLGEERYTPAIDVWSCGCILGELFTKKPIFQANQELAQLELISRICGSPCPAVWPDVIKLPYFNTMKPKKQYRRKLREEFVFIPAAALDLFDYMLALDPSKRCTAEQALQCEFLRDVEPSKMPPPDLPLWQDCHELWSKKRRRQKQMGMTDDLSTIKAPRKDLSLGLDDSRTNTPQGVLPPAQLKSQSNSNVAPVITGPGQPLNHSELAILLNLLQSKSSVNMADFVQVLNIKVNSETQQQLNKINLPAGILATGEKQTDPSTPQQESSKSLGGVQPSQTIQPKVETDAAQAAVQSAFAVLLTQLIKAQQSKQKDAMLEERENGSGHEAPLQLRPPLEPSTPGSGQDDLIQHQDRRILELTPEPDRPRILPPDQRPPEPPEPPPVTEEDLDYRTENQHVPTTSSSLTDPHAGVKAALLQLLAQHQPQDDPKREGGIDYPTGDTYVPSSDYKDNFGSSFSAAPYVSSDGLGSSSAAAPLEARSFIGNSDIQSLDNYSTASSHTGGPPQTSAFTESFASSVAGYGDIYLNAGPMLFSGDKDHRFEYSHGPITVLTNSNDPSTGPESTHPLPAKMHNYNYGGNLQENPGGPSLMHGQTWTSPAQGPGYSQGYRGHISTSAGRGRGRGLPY
UniProt Q9Z148: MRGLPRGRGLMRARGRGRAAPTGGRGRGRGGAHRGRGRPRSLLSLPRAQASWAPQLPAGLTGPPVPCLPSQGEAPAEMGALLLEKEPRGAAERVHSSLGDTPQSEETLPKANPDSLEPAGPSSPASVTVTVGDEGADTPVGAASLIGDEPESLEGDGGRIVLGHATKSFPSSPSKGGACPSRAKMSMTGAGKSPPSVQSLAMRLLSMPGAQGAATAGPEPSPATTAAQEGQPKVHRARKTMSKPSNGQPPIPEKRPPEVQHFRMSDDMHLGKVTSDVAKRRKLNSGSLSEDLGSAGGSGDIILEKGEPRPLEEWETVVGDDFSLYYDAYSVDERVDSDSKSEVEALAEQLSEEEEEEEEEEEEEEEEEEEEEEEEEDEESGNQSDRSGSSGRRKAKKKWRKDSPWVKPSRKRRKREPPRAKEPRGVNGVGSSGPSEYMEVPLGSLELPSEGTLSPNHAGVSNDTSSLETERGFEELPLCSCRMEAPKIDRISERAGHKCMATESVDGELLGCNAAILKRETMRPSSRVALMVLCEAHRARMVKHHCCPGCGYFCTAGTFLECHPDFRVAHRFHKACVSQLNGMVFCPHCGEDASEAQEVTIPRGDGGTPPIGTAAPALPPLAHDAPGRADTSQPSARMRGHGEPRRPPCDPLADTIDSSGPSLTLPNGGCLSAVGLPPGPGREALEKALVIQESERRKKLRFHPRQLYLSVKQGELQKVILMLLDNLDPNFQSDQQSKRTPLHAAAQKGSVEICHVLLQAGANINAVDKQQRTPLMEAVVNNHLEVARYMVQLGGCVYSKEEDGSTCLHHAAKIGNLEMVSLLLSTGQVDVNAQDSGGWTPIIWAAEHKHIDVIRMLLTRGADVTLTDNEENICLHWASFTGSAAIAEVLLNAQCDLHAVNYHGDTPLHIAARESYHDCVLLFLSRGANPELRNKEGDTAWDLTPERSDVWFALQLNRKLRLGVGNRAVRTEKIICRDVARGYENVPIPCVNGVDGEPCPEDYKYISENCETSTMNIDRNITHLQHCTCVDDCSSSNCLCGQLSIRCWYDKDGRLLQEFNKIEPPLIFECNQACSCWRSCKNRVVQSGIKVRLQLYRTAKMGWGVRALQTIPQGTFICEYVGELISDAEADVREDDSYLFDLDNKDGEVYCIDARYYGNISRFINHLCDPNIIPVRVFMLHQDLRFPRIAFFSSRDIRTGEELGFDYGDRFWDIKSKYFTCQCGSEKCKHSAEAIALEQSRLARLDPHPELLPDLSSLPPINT

No constants are given. Whether binding was seen depends on the method and setting. In cells and extracts the contact can be indirect. Some results given as binding are weak or reduced against the parent protein; the word gives no strength.

Common to all, as to assay: co-IP
The target in test [1] is wild-type HP1β with C-terminal GFP (UniProt P83917).
Test [2] deals with HP1α (mouse (endogenous in MEFs)) (UniProt Q61686).
In test [3] the target is HP1β 89/91A with C-terminal GFP (UniProt P83917).

Take “Flag-tagged Cdk13 (from UniProt Q69ZA1 1-1511) (enzyme)”: the binding result in test [1] is recorded as “binds”.

For “G9a (from UniProt Q9Z148 1-1263) (enzyme)”, the binding entry in test [2], in test [3] and in test [1] was “binds” throughout.

On to “HP1β (endogenous) (from UniProt P83917 1-185)”, for which the binding entry in test [2] was “binds”.
